Shown are results outside the selection of targets with a hit, which stands elsewhere. This is a noisy data set. This is a selection; strong and weak results do not stand in their true shares.

By UniProt entry, the sequences of proteins in these tests, tags left out. Where a name states a change or a piece, a line headed by the entry shows the natural chain unless it says otherwise.
UniProt Q93008, whole entry, looked up: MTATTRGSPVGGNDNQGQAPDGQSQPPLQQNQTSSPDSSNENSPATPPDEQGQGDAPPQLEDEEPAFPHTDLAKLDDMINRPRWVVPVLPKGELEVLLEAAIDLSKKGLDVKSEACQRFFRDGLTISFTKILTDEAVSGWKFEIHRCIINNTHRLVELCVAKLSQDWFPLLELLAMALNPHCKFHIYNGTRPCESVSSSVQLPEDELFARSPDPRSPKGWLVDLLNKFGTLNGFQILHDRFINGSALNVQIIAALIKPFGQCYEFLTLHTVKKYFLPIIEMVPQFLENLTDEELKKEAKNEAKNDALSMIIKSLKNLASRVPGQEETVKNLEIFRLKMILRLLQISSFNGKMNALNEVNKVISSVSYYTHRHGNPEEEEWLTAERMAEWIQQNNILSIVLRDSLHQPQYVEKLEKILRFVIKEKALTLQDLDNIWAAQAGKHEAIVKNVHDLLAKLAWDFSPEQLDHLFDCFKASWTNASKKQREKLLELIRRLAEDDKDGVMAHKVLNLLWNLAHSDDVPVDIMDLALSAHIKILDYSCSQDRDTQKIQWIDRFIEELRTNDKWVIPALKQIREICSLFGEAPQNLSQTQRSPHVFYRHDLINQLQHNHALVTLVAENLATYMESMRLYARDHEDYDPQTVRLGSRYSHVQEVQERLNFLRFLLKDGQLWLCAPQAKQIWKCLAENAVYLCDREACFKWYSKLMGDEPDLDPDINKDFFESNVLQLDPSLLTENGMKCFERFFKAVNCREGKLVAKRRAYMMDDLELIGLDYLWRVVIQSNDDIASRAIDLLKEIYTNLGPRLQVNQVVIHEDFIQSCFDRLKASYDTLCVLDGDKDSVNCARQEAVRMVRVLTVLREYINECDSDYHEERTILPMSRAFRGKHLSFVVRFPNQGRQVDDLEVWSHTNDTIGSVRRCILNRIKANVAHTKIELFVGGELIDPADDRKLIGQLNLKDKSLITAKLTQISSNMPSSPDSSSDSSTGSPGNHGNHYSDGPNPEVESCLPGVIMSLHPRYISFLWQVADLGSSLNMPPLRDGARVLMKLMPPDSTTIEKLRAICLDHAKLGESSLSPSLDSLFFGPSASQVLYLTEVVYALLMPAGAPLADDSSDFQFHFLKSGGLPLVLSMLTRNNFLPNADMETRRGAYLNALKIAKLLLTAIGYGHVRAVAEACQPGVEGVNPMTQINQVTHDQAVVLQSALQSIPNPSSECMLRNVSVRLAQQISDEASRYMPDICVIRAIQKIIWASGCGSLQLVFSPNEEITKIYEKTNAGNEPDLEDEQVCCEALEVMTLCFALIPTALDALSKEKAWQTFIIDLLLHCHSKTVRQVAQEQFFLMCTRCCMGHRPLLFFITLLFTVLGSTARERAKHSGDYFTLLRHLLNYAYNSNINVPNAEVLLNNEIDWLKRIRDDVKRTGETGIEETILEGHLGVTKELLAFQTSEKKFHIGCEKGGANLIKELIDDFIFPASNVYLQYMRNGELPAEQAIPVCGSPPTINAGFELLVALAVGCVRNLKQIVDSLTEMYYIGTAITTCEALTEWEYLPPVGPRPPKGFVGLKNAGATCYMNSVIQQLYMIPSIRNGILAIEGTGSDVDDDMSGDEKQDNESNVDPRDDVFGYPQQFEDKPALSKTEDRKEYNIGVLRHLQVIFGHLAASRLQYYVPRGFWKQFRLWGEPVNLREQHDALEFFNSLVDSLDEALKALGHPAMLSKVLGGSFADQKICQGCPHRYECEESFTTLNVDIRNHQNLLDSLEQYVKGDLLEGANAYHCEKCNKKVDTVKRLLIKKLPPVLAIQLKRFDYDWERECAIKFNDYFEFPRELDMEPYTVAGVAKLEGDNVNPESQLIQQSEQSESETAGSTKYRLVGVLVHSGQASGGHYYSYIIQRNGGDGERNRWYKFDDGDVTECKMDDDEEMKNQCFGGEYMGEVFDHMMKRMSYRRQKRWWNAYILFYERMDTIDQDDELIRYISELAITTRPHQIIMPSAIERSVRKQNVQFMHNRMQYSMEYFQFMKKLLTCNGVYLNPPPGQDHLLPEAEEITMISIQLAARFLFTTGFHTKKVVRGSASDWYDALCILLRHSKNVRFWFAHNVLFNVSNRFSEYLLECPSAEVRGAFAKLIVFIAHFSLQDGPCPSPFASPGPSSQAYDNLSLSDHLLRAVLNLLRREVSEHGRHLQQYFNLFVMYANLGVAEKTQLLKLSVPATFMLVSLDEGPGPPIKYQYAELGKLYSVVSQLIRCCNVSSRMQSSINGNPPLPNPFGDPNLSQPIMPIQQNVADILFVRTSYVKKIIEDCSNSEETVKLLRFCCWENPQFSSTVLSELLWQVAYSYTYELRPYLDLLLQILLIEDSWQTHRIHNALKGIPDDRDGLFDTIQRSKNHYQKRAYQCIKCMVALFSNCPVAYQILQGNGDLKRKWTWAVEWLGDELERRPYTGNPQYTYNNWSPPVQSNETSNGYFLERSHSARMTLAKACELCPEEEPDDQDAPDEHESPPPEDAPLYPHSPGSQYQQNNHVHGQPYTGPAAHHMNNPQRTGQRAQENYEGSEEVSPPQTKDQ
UniProt Q92538, whole entry, looked up: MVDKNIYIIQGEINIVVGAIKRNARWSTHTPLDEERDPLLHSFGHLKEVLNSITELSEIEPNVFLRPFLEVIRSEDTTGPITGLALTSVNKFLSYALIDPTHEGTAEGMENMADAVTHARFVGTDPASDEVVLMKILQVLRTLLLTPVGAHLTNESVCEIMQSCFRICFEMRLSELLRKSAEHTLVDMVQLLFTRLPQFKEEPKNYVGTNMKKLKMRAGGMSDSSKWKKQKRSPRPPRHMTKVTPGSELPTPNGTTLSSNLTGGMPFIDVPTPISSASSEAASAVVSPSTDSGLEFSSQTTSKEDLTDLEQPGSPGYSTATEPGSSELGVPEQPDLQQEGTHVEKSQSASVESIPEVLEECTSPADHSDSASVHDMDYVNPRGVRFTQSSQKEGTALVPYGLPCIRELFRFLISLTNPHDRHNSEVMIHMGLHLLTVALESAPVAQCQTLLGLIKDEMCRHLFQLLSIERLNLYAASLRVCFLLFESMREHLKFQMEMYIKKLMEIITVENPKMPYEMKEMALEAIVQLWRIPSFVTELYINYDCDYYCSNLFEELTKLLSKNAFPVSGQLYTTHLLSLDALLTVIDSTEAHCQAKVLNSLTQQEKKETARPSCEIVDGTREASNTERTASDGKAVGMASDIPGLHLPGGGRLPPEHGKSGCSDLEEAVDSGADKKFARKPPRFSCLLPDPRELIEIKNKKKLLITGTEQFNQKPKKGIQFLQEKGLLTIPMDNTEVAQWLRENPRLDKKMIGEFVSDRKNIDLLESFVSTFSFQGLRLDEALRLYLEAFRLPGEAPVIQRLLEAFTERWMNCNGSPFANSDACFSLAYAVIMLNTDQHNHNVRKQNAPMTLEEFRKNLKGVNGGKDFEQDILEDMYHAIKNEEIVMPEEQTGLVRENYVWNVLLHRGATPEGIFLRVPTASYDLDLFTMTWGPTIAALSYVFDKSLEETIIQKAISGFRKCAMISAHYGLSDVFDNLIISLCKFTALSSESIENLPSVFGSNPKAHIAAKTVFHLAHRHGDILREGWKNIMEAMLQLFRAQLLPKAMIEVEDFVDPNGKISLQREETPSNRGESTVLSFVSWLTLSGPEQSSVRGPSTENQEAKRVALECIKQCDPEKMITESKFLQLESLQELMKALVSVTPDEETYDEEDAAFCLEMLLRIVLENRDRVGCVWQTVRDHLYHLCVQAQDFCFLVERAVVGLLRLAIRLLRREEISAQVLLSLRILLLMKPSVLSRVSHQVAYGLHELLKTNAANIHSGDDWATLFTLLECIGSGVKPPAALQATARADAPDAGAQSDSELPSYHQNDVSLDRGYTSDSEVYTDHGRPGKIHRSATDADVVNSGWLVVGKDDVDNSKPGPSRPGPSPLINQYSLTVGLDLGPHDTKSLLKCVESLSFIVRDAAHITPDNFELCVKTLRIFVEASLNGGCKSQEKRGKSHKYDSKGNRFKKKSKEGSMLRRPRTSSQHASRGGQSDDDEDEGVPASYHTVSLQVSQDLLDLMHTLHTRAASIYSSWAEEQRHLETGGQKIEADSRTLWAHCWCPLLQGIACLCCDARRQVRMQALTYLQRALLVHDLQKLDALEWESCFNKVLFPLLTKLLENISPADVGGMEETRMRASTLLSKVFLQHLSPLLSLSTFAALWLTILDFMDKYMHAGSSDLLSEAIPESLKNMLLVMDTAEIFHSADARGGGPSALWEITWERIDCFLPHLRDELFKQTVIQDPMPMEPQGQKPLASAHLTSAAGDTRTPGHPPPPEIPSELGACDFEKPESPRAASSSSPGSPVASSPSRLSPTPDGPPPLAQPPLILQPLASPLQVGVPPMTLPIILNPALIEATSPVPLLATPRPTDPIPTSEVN
UniProt Q96E11: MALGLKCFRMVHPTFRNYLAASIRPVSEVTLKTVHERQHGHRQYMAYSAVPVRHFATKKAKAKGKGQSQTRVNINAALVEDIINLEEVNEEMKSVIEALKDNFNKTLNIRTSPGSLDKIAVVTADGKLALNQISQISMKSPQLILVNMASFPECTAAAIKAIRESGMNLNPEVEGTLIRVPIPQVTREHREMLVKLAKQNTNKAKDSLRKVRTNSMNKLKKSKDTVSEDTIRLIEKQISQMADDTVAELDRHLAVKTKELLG
UniProt Q96H79: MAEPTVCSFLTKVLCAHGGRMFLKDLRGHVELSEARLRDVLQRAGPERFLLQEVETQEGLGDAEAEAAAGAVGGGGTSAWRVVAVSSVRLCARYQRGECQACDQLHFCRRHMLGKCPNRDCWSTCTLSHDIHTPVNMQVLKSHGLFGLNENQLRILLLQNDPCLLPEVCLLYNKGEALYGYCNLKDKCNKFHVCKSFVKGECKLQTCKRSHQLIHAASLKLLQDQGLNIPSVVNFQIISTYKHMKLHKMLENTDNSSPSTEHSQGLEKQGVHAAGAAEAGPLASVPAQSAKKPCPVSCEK
UniProt Q96GD0: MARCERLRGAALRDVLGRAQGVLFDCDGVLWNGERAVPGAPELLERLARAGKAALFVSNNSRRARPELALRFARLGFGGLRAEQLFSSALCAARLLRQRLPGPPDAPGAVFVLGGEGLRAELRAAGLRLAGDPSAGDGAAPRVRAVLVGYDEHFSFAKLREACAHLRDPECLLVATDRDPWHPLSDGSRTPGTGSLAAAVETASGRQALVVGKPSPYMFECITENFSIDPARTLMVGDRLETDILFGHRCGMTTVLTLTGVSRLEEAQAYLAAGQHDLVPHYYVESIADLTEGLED
UniProt Q96HA1, whole entry, looked up: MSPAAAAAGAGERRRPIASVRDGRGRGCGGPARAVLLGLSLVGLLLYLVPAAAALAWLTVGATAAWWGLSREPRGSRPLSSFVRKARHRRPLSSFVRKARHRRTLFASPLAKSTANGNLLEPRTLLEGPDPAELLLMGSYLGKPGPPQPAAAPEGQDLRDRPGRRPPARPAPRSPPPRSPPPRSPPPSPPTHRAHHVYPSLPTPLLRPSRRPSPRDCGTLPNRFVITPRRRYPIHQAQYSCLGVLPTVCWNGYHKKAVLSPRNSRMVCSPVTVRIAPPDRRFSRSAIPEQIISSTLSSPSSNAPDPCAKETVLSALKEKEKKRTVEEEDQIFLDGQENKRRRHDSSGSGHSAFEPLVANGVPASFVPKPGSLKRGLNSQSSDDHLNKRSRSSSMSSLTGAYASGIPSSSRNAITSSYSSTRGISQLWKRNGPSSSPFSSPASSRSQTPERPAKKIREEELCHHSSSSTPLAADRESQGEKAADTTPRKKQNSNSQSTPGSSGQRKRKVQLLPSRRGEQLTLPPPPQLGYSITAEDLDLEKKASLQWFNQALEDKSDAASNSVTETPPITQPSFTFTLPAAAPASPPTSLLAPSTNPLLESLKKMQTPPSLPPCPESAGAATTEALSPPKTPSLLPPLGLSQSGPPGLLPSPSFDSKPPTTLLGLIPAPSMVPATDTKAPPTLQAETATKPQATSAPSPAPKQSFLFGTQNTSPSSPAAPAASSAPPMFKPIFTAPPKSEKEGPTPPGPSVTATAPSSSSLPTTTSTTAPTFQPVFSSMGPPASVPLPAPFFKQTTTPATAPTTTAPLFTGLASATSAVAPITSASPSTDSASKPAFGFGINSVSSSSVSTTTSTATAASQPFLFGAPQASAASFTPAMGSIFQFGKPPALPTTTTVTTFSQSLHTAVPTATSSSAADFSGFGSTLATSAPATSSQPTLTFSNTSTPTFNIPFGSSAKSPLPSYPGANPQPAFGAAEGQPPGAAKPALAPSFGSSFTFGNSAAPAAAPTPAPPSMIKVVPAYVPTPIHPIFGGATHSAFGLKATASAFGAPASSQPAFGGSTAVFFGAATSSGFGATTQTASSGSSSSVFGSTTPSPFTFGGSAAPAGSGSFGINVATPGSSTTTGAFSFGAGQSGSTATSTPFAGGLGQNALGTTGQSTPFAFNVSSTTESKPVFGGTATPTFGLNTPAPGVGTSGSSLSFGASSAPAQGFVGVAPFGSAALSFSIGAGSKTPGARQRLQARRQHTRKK

The values below come from the supplement of paper PMC11006884.

Compound in the assay: COC(=O)/C=C/c1ccccc1 [methyl cinnamate]
Put plainly: log2 ratio of iodoacetamide-alkyne labeling of the cysteine site, DMSO over compound (competition); higher = stronger covalent engagement of the cysteine by the compound, active = 1 or more. The note with it: 500 µM; treatment time 1 h; system: HEK293T cell lysate. The procedure, abridged: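 HEK293T lysate (2 mg/mL) was treated with DMSO or electrophile (500 µM, 1 h, ambient temperature), then iodoacetamide alkyne (1 h), clicked to sCIP-TMT reagents, pooled, trypsin-digested overnight at 37 °C, streptavidin-enriched and acid-eluted. Peptides were run on Orbitrap Eclipse LC-MS/MS with FAIMS and quantified in FragPipe. The log2 competition ratio per cysteine is mean control-channel over mean compound-channel reporter intensity. Duplicate channels and three replicates were used, and cysteines quantified in only one replicate were excluded.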
NUP205 C1715 (UniProt Q92621): the “log2 ratio of iodoacetamide-alkyne labeling” value (“log2 ratio” below) was inactive: 0.139. Regarding HSPH1 C650 (UniProt Q92598), the “log2 ratio” value is inactive: 0.0731. As to DPF2 C295 (UniProt Q92785), the “log2 ratio” value is inactive: 0.0738. As for UniProt Q92616_C648, the figure is inactive: 0.0241; as for SMARCC1 C119 (UniProt Q92922), inactive: 0.0907; as for UniProt Q96BN8_C347, inactive: 0.357.

With USP9X C1212 (UniProt Q93008), the “log2 ratio” value was inactive: 0.15. With SNX19 C277 (UniProt Q92543), the “log2 ratio” value was inactive: 0.0209. For the target GTPBP3 C489 (UniProt Q969Y2), the “log2 ratio” value was inactive: -0.223. As for GBF1 C685 (UniProt Q92538), the figure is inactive: -0.131; as for LPP C524 (UniProt Q93052), inactive: 0.149; as for UniProt Q92879_C150, inactive: 0.00913. As for MRRF C154 (UniProt Q96E11), the figure is inactive: -0.0202.

Take NRBF2 C155 (UniProt Q96F24): the “log2 ratio” value is inactive: 0.0953. As for UniProt Q92616_C36, the “log2 ratio” value was inactive: 0.285. As to ZC3HAV1L C7 (UniProt Q96H79), the “log2 ratio” value was inactive: -0.158. With DCPS C37 (UniProt Q96C86), the “log2 ratio” value was inactive: 0.182.

For LIN37 C28 (UniProt Q96GY3), the “log2 ratio” value was inactive: -0.0469.

ATG2B C243 (UniProt Q96BY7): the “log2 ratio” value is inactive: 0.154.

In the case of CCDC97 C136 (UniProt Q96F63), the “log2 ratio” value is inactive: 0.139. UBXN4 C186 (UniProt Q92575): the “log2 ratio” value was inactive: 0.457. For FMC1 C68 (UniProt Q96HJ9) the value was inactive: 0.0904; for ELP4 C361 (UniProt Q96EB1), inactive: 0.0848; for PDXP C26 (UniProt Q96GD0), inactive: -0.131. Regarding UniProt Q92615_C590, the “log2 ratio” value is inactive: 0.272. For USP9X C842 (UniProt Q93008) the value was inactive: 0.147. As for POM121 C307 (UniProt Q96HA1), the figure is inactive: 0.23; as for UniProt Q92888_C815, inactive: 0.171. With MRPS27 C49 (UniProt Q92552), the “log2 ratio” value was inactive: 0.0975. As for USP9X C1061 (UniProt Q93008), the figure is inactive: 0.161; as for EFHD2 C172 (UniProt Q96C19), inactive: 0.092; as for SYAP1 C283 (UniProt Q96A49), inactive: 0.0961. As for MASTL C285 (UniProt Q96GX5), the figure is inactive: 0.361. As for UBXN4 C144 (UniProt Q92575), the figure is inactive: 0.328. Regarding TBRG4 C246 (UniProt Q969Z0), the “log2 ratio” value is inactive: -0.13. RPL36AL C88 (UniProt Q969Q0): the “log2 ratio” value is inactive: 0.354.

MRPL24 C190 (UniProt Q96A35): the “log2 ratio” value was inactive: 0.193.
